From PubChem BioAssay AID256 (DTP/NCI, 2004)
The list does not hold the whole screen: it covers a few groups of compounds. Other doses and runs of a compound may be missing. T/C gives the treated animals as a percentage of the vehicle group. Some doses have a count of surviving animals in place of a T/C: the source files T/C as zero there, which appears to mark a toxic dose or a test without result, not a measured value. Survivors were counted at the toxicity check, usually on the fifth day, unless a day is given; later deaths do not show. Schedules are NCI's codes, taken here to give the interval after Q, in days (D) or hours (H), and the number of doses after X. Where survival is the endpoint, this PubChem deposit counts one and a half times the control or more as active, and values a quarter to a half above the control carry no call in these data; other NCI protocols may use other cut-offs. Some entries were tested several times; the values are given in rising order. Some T/C values carry the count of animals alive at the toxicity check (mostly the fifth day); where neither a count nor a note follows, no animal had died by that day.

Test system: CD2F1 mice, L1210 leukemia ip, survival T/C
Assay: NCI In Vivo Anticancer Drug Screen. Data for tumor model L1210 Leukemia (intraperitoneal) in CD2F1 (CDF1) mice
Conditions: T/C endpoint: mean survival time, higher T/C = longer survival
Summary of the method: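 Implant tumor; dose compound or vehicle; measure endpoint in both groups; report treated divided by control.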

[1] = dose: 100.0 mg/kg/injection, schedule: Q01DX009 (ip), vehicle: Klucel (hydroxypropylcellulose) (HPC)

Compound: CC(C)CC(CC(C)C)NC(C)CO.O=[N+]([O-])c1cc([N+](=O)[O-])c(O)c([N+](=O)[O-])c1
- T/C (dose: 75.0 mg/kg/injection, schedule: Q01DX001 (ip), vehicle: other): 100 % of control
- T/C (dose: 150.0 mg/kg/injection, schedule: Q01DX001 (ip), vehicle: other): 103 % of control
- survivor count (dose: 300.0 mg/kg/injection, schedule: Q01DX001 (ip), vehicle: other): 0 of 6

Compound: CC1(C)CN1P(=O)(Nc1ccccn1)N1CC1(C)C (configuration not stated)
- T/C (dose: 25.0 mg/kg/injection, schedule: Q01DX009 (ip), vehicle: saline with Tween-80): 98 % of control
- T/C (dose: 50.0 mg/kg/injection, schedule: Q01DX009 (ip), vehicle: saline with Tween-80): 102 % of control
- T/C (dose: 88.0 mg/kg/injection, schedule: Q01DX009 (ip), vehicle: saline with Tween-80): 124 % of control
- T/C (dose: 100.0 mg/kg/injection, schedule: Q01DX001 (ip), vehicle: carboxymethylcellulose (CMC)): 113 % of control
- T/C (dose: 100.0 mg/kg/injection, schedule: Q01DX009 (ip), vehicle: saline with Tween-80): 119 % of control
- T/C (dose: 132.0 mg/kg/injection, schedule: Q01DX009 (ip), vehicle: saline with Tween-80): 137 % of control
- T/C (dose: 200.0 mg/kg/injection, schedule: Q01DX001 (ip), vehicle: carboxymethylcellulose (CMC)): 119 % of control
- T/C (dose: 200.0 mg/kg/injection, schedule: Q01DX009 (ip), vehicle: saline with Tween-80): 154 and 165 % of control
- T/C (dose: 300.0 mg/kg/injection, schedule: Q01DX009 (ip), vehicle: saline with Tween-80): 224 % of control [5 of 6 alive]
- T/C (dose: 400.0 mg/kg/injection, schedule: Q01DX001 (ip), vehicle: carboxymethylcellulose (CMC)): 122 % of control

Compound: CCOP(=O)(NC(=S)Nc1ccccc1NC(=S)NP(=O)(OCC)OCC)OCC
- T/C (dose: 1.56 mg/kg/injection, schedule: Q01DX009 (ip), vehicle: saline): 108 % of control
- T/C (dose: 3.12 mg/kg/injection, schedule: Q01DX009 (ip), vehicle: saline): 103 % of control
- T/C (dose: 6.25 mg/kg/injection, schedule: Q01DX009 (ip), vehicle: saline): 96 % of control

Compound: O=C(O)c1cccc(N(CCCl)CCCl)c1
- T/C (dose: 6.25 mg/kg/injection, schedule: Q01DX009 (ip), vehicle: Klucel (hydroxypropylcellulose) (HPC)): 104 % of control
- T/C (dose: 12.5 mg/kg/injection, schedule: Q01DX009 (ip), vehicle: Klucel (hydroxypropylcellulose) (HPC)): 110 % of control
- T/C (dose: 25.0 mg/kg/injection, schedule: Q01DX001 (ip), vehicle: Klucel (hydroxypropylcellulose) (HPC)): 117 % of control
- T/C (dose: 25.0 mg/kg/injection, schedule: Q01DX009 (ip), vehicle: Klucel (hydroxypropylcellulose) (HPC)): 109 % of control
- T/C (dose: 25.0 mg/kg/injection, schedule: Q04DX003 (ip), vehicle: Klucel (hydroxypropylcellulose) (HPC)): 102 and 112 % of control
- T/C (dose: 25.0 mg/kg/injection, schedule: Q08DX002 (ip), vehicle: Klucel (hydroxypropylcellulose) (HPC)): 98 % of control
- T/C (dose: 50.0 mg/kg/injection, schedule: Q01DX001 (ip), vehicle: Klucel (hydroxypropylcellulose) (HPC)): 102 % of control
- T/C (dose: 50.0 mg/kg/injection, schedule: Q01DX009 (ip), vehicle: Klucel (hydroxypropylcellulose) (HPC)): 139 and 146 % of control
- T/C (dose: 50.0 mg/kg/injection, schedule: Q04DX003 (ip), vehicle: Klucel (hydroxypropylcellulose) (HPC)): 118 and 129 % of control
- T/C (dose: 50.0 mg/kg/injection, schedule: Q08DX002 (ip), vehicle: Klucel (hydroxypropylcellulose) (HPC)): 101 % of control
- T/C (dose: 100.0 mg/kg/injection, schedule: Q01DX001 (ip), vehicle: Klucel (hydroxypropylcellulose) (HPC)): 108 % of control
- T/C [1]: 152 % of control
- survivor count [1]: 3 of 6
- T/C (dose: 100.0 mg/kg/injection, schedule: Q04DX003 (ip), vehicle: Klucel (hydroxypropylcellulose) (HPC)): 118 and 124 % of control
- T/C (dose: 100.0 mg/kg/injection, schedule: Q08DX002 (ip), vehicle: Klucel (hydroxypropylcellulose) (HPC)): 97 % of control
- survivor count (dose: 200.0 mg/kg/injection, schedule: Q01DX009 (ip), vehicle: Klucel (hydroxypropylcellulose) (HPC)): 0 of 6

Compound: NC1CCCCC1.O=P(O)(NO)N(CCCl)CCCl
- T/C (dose: 25.0 mg/kg/injection, schedule: Q01DX001 (ip), vehicle: water): 100 % of control
- T/C (dose: 50.0 mg/kg/injection, schedule: Q01DX001 (ip), vehicle: water): 106 % of control
- T/C (dose: 100.0 mg/kg/injection, schedule: Q01DX001 (ip), vehicle: water): 124 % of control
- T/C (dose: 200.0 mg/kg/injection, schedule: Q01DX001 (ip), vehicle: water): 137 % of control
- T/C (dose: 400.0 mg/kg/injection, schedule: Q01DX001 (ip), vehicle: water): 149 % of control
